Data source: PubChem BioAssay AID1053208 (Peter MacCallum Cancer Centre, 2014)
Shown is one part, drawn at random, of about 17,000 deposited reagents. 788 of them (4.7%) were called active. 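Calls rest on z-score classes alone; an extra cut-off of viability at most 70% of control was not applied to them.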 Unmarked entries are inactive. Not all columns of the deposit are shown.

Aim: 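Genes whose silencing cuts survival of bone tumour cells only with doxorubicin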 (primary screen)
System: mouse osteosarcoma cells, early-passage culture from an engineered mouse model of fibroblastic bone tumour
Knock-down reagent: siRNA pool against mouse genes, 40 nM
Time to read-out: about 120 h (48 h before drug, then 72 h with drug)
Conditions: doxorubicin 100 nM for 72 h, roughly 30-40% inhibitory dose
Measurement: 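Luminescent ATP signal taken as viability with or without 100 nM doxorubicin for 72 h; mean of two wells set against non-targeting siRNA and turned into robust z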
Scale: viability z-score with doxorubicin: higher = more viable cells under doxorubicin; viability z-score without drug: higher = more viable cells with knock-down alone
Hit rule: 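Called active if knock-down leaves viability unchanged without drug (z within -2 to 2) but lowers it with doxorubicin (z at or under -2)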

Depletion of BC053071 [SID152286292] came out at: combined z-score class no change with or without drug; viability z-score with doxorubicin -1.12; viability z-score without drug -1.52. After knock-down of Gstt2 [SID152323906] the results were combined z-score class no change with or without drug; viability z-score with doxorubicin 0.45; viability z-score without drug 0.34. For Zfp353-ps [SID152308505] the deposit lists combined z-score class no change with or without drug; viability z-score with doxorubicin 1.69; viability z-score without drug -0.17. After knock-down of Fem1b [SID152335704] the results were combined z-score class no change with or without drug; viability z-score with doxorubicin -0.67; viability z-score without drug -0.51. Against Slc39a6 [SID152333122], the values are combined z-score class no change with or without drug; viability z-score with doxorubicin 0.22; viability z-score without drug -0.17. Pira1 [SID152270263] showed combined z-score class no change with or without drug; viability z-score with doxorubicin 1.12; viability z-score without drug 1.35.

For Adap1 [SID152273432] the deposit lists combined z-score class no change with or without drug; viability z-score with doxorubicin -1.24; viability z-score without drug -0.84. Aass [SID152310043] gave combined z-score class high cell count without drug only; viability z-score with doxorubicin -0.22; viability z-score without drug 2.7. With knock-down of Spink1 [SID152328977] the results were combined z-score class no change with or without drug; viability z-score with doxorubicin 0.11; viability z-score without drug -0.84. Against Tbl1xr1 [SID152320688] the deposit lists combined z-score class high cell count without drug only; viability z-score with doxorubicin 0.34; viability z-score without drug 2.02. For Mindy1 [SID152300495], the entry reads combined z-score class no change with or without drug; viability z-score with doxorubicin -1.57; viability z-score without drug 0. Against Adar [SID152281865], the entry reads combined z-score class no change with or without drug; viability z-score with doxorubicin -0.22; viability z-score without drug 1.85.

Against Alg11 [SID152268641] the deposit lists combined z-score class no change with or without drug; viability z-score with doxorubicin 0.45; viability z-score without drug 0.34. For Sfxn4 [SID152311333], the entry reads combined z-score class no change with or without drug; viability z-score with doxorubicin 0.22; viability z-score without drug -0.51. For Pcdh9 [SID152293272], the entry reads combined z-score class no change with or without drug; viability z-score with doxorubicin 0.67; viability z-score without drug 1.52. Ubap2 [SID152274176] scored combined z-score class no change with or without drug; viability z-score with doxorubicin -0.45; viability z-score without drug -0.51. A430057M04Rik [SID152338392] showed combined z-score class no change with or without drug; viability z-score with doxorubicin 0; viability z-score without drug -0.34. Senp7 [SID152313923] scored combined z-score class no change with or without drug; viability z-score with doxorubicin 0.45; viability z-score without drug 0.84.

Depletion of Tspan14 [SID152272457] came out at: combined z-score class no change with or without drug; viability z-score with doxorubicin -0.67; viability z-score without drug -0.84. 4933405O20Rik [SID152265437] gave combined z-score class no change with or without drug; viability z-score with doxorubicin -0.45; viability z-score without drug 1.52. Depletion of Vkorc1l1 [SID152268840] came out at: combined z-score class no change with or without drug; viability z-score with doxorubicin -1.57; viability z-score without drug -0.17. Against Repin1 [SID152262177] the deposit lists combined z-score class no change with or without drug; viability z-score with doxorubicin -0.34; viability z-score without drug 0.34. For Mcf2l [SID152288769] the deposit lists combined z-score class no change with or without drug; viability z-score with doxorubicin -0.67; viability z-score without drug 0.67. Knock-down of Trav13-5 [SID152263796] gave: combined z-score class no change with or without drug; viability z-score with doxorubicin -1.12; viability z-score without drug 0.51.

Aoah [SID152309679] gave combined z-score class no change with or without drug; viability z-score with doxorubicin 0.67; viability z-score without drug -0.17. Mthfr [SID152330599] showed combined z-score class no change with or without drug; viability z-score with doxorubicin -0.79; viability z-score without drug -1.69. Against Slfn4 [SID152300573], the values are combined z-score class no change with or without drug; viability z-score with doxorubicin -0.22; viability z-score without drug -1.85. After knock-down of Mterf4 [SID152304052], the screen gave combined z-score class no change with or without drug; viability z-score with doxorubicin -0.79; viability z-score without drug 0.34.

Sorted by “viability z-score with doxorubicin” (highest first): 4 of the entries above.
Pcdh9 [SID152293272]: combined z-score class = no change with or without drug; viability z-score with doxorubicin = 0.67; viability z-score without drug = 1.52
Alg11 [SID152268641]: combined z-score class = no change with or without drug; viability z-score with doxorubicin = 0.45; viability z-score without drug = 0.34
Sfxn4 [SID152311333]: combined z-score class = no change with or without drug; viability z-score with doxorubicin = 0.22; viability z-score without drug = -0.51
Adar [SID152281865]: combined z-score class = no change with or without drug; viability z-score with doxorubicin = -0.22; viability z-score without drug = 1.85
